From US9278071B2, “Organic compound nano-powder, method for producing the same and suspension” (Activus Pharma Co., Ltd., priority 2012, dated 2016)
Where a name gives a salt, the structure may show the parent alone.

Experiment: Particle diameter distribution by dynamic light scattering photon correlation method (Delsa Nano)
Assay type: physicochemical
Settings: starting organic compound powder before mixing/milling
Text: The term “average particle diameter” used in present specification means a mathematical average diameter (here, defined as the Dav value) in the particle diameter distribution as measured by a dynamic light scattering photon correlation method. The term “50%-diameter” (defined as median diameter or the D50 value) means a certain particle diameter when amount of a larger side becomes equal to amount of a smaller side of the particle diameters divided into two a powder from the certain particle diameter. The term “90%-diameter” (D90 value) means the particle diameter of the particle at the position of 90% when counted from the smallest size zero (minimum) to 100% (maximum) of the particle diameter in the particle diameter distribution as measured by the above-mentioned measurement method. The term “10%-diameter” (D10 value) means the particle diameter of the particle at the position of 10% when counted from the smallest size zero (minimum) to 100% (maximum) of the particle diameter in the particle diameter distribution as measured by the above-mentioned measurement method. The average particle diameter of the organic compound is more preferably in the range of 50 to 400 nm, further more preferably in the range of 100 to 350 nm. The D90 value of the organic compound is more preferably less than 700 nm, further more preferably less than 500 nm.
10 g of turmeric powder (>90% purity of curcuminoid, manufactured by Bio Actives Japan Corp.), 78 g of D-(−)-mannitol (particle diameter distribution in the range of 10 to 300 μm, manufactured by Wako Pure Chemical Industries, Ltd.), 10 g of a sucrose fatty acid ester (trade name of DK Ester SS, manufactured by Dai-Ichi Kogyo Seiyaku Co., Ltd.), 1.7 g of sodium carboxymethyl cellulose (trade name of Cellogen F-3H, manufactured by Dai-Ichi Kogyo Seiyaku Co., Ltd.) and 9 g of purified water were introduced into a 500-mL trimix kneader (manufactured by Inoue MFG, Inc.) and then were mixed and kneaded with keeping the load current of 0.95 to 1.2 A for about 3 hours. The particle diameter distribution of the turmeric powder measured before the process of mixing by the particle diameter distribution measurement instrument (instrument name of Delsa Nano, manufactured by Beckman Coulter Inc.) was as follows: the average particle diameter (Dav)=12820 nm, the value of D10=3793 nm, the value of D50=10530 nm, and the value of D90=25520 nm. […] The particle diameter distribution of the kneaded product measured by the foregoing particle diameter distribution measurement instrument after the dispersion treatment was as follows: the average particle diameter (Dav)=202 nm, the value of D10=78 nm, the value of D50=162 nm, and the value of D90=338 nm.

CC(C)(C(=O)O)c1ccc(C(O)CCCN2CCC(C(O)(c3ccccc3)c3ccccc3)CC2)cc1 (stereo not shown) [fexofenadine hydrochloride powder, fexofenadine hydrochloride]
Particle diameter distribution, D10, before milling: 3225 nm | Particle diameter distribution, D50, before milling: 27320 nm | Particle diameter distribution, D90, before milling: 139600 nm | Particle diameter distribution, Dav (average particle diameter), before milling: 45660 nm
